# Assay results reported in the supplement of paper PMC12889115.
# The other results are listed elsewhere or left out. Values are raw readings; no control value is given beside them.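 Primary screen: polymyxin B was added at a level permeabilizing Salmonella outer membranes while sparing inner membranes. DMSO wells, both with and without polymyxin B, established maximum growth. Plate-to-plate variation meant each plate was ranked on its own, and the lowest-OD600 compounds were selected as hits.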
# Tested on: Salmonella enterica serovar Typhimurium SL1344
# Experiment: bacterial growth OD600 after 18 h with compound and polymyxin B; higher = more bacterial growth (less inhibition)
# Conditions: 50 µM, Mueller-Hinton broth
Compound,bacterial growth OD600 (polymyxin B 1 µg/mL),bacterial growth OD600 (polymyxin B 0.75 µg/mL)
COC(=O)CCCC(=O)N1CCCC(Nc2ccc(C)c(C)c2)C1 (stereo not given),0.936,
CCOC(=O)C1(CCCc2ccccc2)CCN(C(=O)CCN2CCCCC2=O)CC1,0.734,
CCn1cc(CN2CCC3(CC2)c2ccccc2[C@@H](NC(=O)c2cccc(F)c2)[C@@H]3OC)c(C)n1,,0.927
COc1ccc(CCN2CC(C(=O)NCCc3ccccn3)CCC2=O)cc1 (stereo not given),0.916,
CSc1ccc(CC2(CCC(=O)N3CCC(O)(c4ccc(Cl)cc4)CC3)CCC(=O)N2)cc1 (stereo not given),,0.869
Cc1ncc2c(c1CNC(=O)/C=C/c1cccs1)CCN(C(=O)c1ccc3nccnc3c1)C2,,0.985
CC(Nc1ccc(-c2nc(Cc3ccccc3)no2)cn1)c1nncn1C (stereo not given),,0.817
COc1ccc(-c2noc(CN(C)Cc3cnn(-c4ccccc4C)c3)n2)cc1,0.007,
COCC1CCCN(C(=O)C2(N3CCCCC3)Cc3ccccc3C2)C1 (stereo not given),,0.723
O=C(CCCCc1ccccc1)N1CCOc2ccc(CN3CCN(c4ncccn4)CC3)cc2C1,,0.61
CCCOC1CCCN(C(=O)c2ccc(OC3CCN(Cc4ccccn4)CC3)cc2)C1 (stereo not given),1.07,
O=C(Nc1ccc(Oc2ccccc2F)cc1)C1CCN(C2CCC2)CC1,1.09,
CN(C(=O)CCc1nnc(-c2ccc(-c3ccccc3)cc2)o1)C1CCOCC1,0.801,
O=C1CCC(CCC(=O)N(Cc2ccccc2)CC2CC2)(Cc2ccco2)N1 (stereo not given),,0.816
COCCO[C@H]1[C@H](NC(=O)C(C)C)c2ccccc2C12CCN(Cc1cccc(O)c1)CC2,,0.891
Cn1cc(CN2CCCCC2c2nccs2)c(-c2ccc3c(c2)OCCO3)n1 (stereo not given),0.746,
O=C(COc1ccccc1)N1CCCC(Nc2ccc(F)cc2)C1 (stereo not given),1.09,
CC(C)c1ccc(NC2CCCN(C(=O)CCc3cccnc3)C2)cc1 (stereo not given),,0.648
Cc1oc(-c2cc3c(cc2Cl)OCO3)nc1CN1CCCC1c1ccc(F)cc1 (stereo not given),0.875,
O=C(Nc1ccnn1C1CCN(Cc2ccncc2)CC1)C1CCCC1,,0.805
CSCCC(=O)NC(C)c1cnc(N(C)C2CCCCC2)nc1C (stereo not given),0.725,
CN(C(=O)c1cccs1)C(Cc1ccccc1)C1CCN(C(=O)C2=CCCC2)CC1 (stereo not given),,0.834
COc1cccc(OC)c1CN1CCOc2ccc(C(C)(O)COc3ccccc3)cc2C1 (stereo not given),,0.779
CCCC1(C2CCN(C(=O)c3ccc(F)cc3F)CC2)NC(=O)N(CCc2ccccn2)C1=O (stereo not given),,0.922
COc1cccc(C(=O)N2CCCC(N3CCN(c4ccccc4C)CC3)C2)c1 (stereo not given),0.786,
Cc1cccnc1CC(C)Nc1nc2nonc2nc1NC1CC1 (stereo not given),,0.746
O=C1CCCN1CCC(=O)N1CCCC(CCc2ccccc2C(F)(F)F)C1 (stereo not given),,0.632
O=C(c1cnc2ccccn2c1=O)N1CCc2c([nH]c3ccccc23)C1c1ccccn1 (stereo not given),0.86,
O=C(NCCC1=CCCCC1)C1CC12CCN(C(=O)CCc1ccc3c(c1)OCO3)CC2 (stereo not given),,0.005
CCc1cnc(N2CCC(C3CCN(Cc4cccnc4)CC3)C2)nc1 (stereo not given),,0.725

# By substructure, the entries above with a Cl atom
Compound,bacterial growth OD600 (polymyxin B 1 µg/mL),bacterial growth OD600 (polymyxin B 0.75 µg/mL)
CSc1ccc(CC2(CCC(=O)N3CCC(O)(c4ccc(Cl)cc4)CC3)CCC(=O)N2)cc1 (stereo not given),,0.869
Cc1oc(-c2cc3c(cc2Cl)OCO3)nc1CN1CCCC1c1ccc(F)cc1 (stereo not given),0.875,
